Results from patent US20250120948A1, “Small Molecules G(alpha)I2 Inhibitors and Combination With Anticancer Drugs and Use Thereof” (Georgia Tech Research Corporation, priority 2023, published 2025).
At least one structure is not confirmed: it was looked up by name or label, or the drawing left a doubt.

Tested on: LNCaP cells
Experiment: Transwell migration assay in LNCaP prostate cancer cells
Assay type: cell-based, human
Conditions: drug alone
Description: In vitro transwell migration assays were conducted as described previously (Caggia et al., “Novel Role of Gialpha2 in Cell Migration: Downstream of PI3-kinase-AKT and RacI in Prostate Cancer Cells,” J Cell Physiol, 234:802-815 (2018); Caggia et al., “Small Molecule Inhibitors Targeting Galphai2 Protein Attenuate Migration of Cancer Cells,” Cancers (Basel), 12(6):1631 (2020)). Briefly, the outside of the transwell inserts (BD Biosciences, San Jose, CA) were coated with 50 μl of rat tail collagen ([…]; BD Biosciences, San Jose, CA) overnight at 4° C. The next day, 50 μl of the aforementioned rat tail collagen were added for 1 hour at room temperature into the transwell inserts, to coat the inside of the membranes. […] The number of stained nuclei were determined with automatic counting using image analysis software (ZEN 2012; Carl Zeiss). Results were expressed as migration index defined as the average number of cells per field for test substance/the average number of cells per field for the medium control.
To determine the effects of HDACi on prostate cancer cell migration, migration assays were performed in androgen receptor (AR)-positive LNCaP cells using several concentrations of SAHA (0.1, 0.25, 0.5, 1, 2, 4 μM), a commercially available HDACi. […] The possible effects of different concentrations of SBI-I-19 on cell migration in LNCaP cells were determined.

Structure (SMILES)	concentration of maximum induction of cell migration in LNCaP cells	effect of chemotherapeutic drug on cell migration in LNCaP cells (several concentrations, 24 hours)
CC1(C)C(=O)N(c2ccc(C#N)c(C(F)(F)F)c2)C(=O)N1Cc1ccc(-c2cn(CCCCC(=O)NO)nn2)cc1 [SBI-I-19]	1 and 2 μM	
CC(O)(CS(=O)(=O)c1ccc(F)cc1)C(=O)Nc1ccc(C#N)c(C(F)(F)F)c1 (centres unmarked) [bicalutamide]		dose-dependent increase in cell migration
